{"sequences": {"note": "Sequences of proteins named here, by UniProt entry; tags and fusion partners are left off.", "DNAJB1, P25685, UniProt P25685, whole entry": "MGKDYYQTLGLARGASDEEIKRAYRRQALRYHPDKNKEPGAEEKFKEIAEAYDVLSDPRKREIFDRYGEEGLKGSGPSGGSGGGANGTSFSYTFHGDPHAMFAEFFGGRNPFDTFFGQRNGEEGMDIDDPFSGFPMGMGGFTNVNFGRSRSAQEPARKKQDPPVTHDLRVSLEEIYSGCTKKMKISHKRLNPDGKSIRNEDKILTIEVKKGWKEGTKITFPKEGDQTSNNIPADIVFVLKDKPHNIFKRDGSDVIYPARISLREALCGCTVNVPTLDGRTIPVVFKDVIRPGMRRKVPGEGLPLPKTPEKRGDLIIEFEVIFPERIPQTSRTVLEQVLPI", "EIF1, P41567, UniProt P41567, whole entry": "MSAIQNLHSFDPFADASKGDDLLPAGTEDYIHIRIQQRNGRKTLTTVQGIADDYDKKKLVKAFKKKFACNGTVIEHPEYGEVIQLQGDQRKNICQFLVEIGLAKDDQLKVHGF", "KHDRBS1, Q07666, UniProt Q07666, whole entry": "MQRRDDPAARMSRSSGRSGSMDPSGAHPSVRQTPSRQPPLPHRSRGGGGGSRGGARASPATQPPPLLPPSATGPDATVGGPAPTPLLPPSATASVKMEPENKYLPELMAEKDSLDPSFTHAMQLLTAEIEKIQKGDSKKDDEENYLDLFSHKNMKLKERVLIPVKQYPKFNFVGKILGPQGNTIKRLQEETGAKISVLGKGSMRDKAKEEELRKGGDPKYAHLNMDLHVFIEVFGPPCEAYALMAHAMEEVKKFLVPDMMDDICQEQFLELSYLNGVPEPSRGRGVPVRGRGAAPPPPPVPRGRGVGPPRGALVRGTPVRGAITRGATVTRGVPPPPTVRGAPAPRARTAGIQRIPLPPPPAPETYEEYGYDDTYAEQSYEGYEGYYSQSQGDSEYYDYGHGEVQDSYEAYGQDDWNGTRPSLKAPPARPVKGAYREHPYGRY"}, "source": "the supplement of paper PMC10032668", "experiment_in_all_cases": "PRISMA enrichment of interactor (LFQ) in peptide spot vs all other peptide spots (log2 fold change); higher = stronger / more specific binding of the interactor to the peptide", "key": {"[1]": {"molecular_target": "DAZAP1, Q96EP5", "procedure": "(§1)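 PRISMA: 221 full-length sORF-encoded peptides (3-15 aa), plus SOS1/GLUT1 control peptides, were spot-synthesized on cellulose membranes in triplicate. Membranes were incubated with HEK293T lysate, and bound proteins were identified by LC-MS/MS with LFQ. Enrichment is the log2 fold change versus all other peptide spots; only significant interactors are listed (cutoff c=6, x0=2.8).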"}, "[2]": {"molecular_target": "DCXR, Q7Z4W1", "procedure": "as §1"}, "[3]": {"molecular_target": "DDX1, Q92499", "procedure": "as §1"}, "[4]": {"molecular_target": "DDX47, Q9H0S4", "procedure": "as §1"}, "[5]": {"molecular_target": "DDX49, Q9Y6V7", "procedure": "as §1"}, "[6]": {"molecular_target": "DDX6, P26196", "procedure": "as §1"}, "[7]": {"molecular_target": "DECR2, Q9NUI1", "procedure": "as §1"}, "[8]": {"molecular_target": "DERPC, P0CG12", "procedure": "as §1"}, "[9]": {"molecular_target": "DNAJA3, Q96EY1", "procedure": "as §1"}, "[10]": {"molecular_target": "DNAJB1, P25685", "procedure": "as §1"}, "[11]": {"molecular_target": "DNAJB12, Q9NXW2", "procedure": "as §1"}, "[12]": {"molecular_target": "DNAJC8, O75937", "procedure": "as §1"}, "[13]": {"molecular_target": "EDF1, O60869", "procedure": "as §1"}, "[14]": {"molecular_target": "EHHADH, Q08426", "procedure": "as §1"}, "[15]": {"molecular_target": "EIF1, P41567", "procedure": "as §1"}, "[16]": {"molecular_target": "EIF4H, Q15056", "procedure": "as §1"}, "[17]": {"molecular_target": "EMG1, Q92979", "procedure": "as §1"}, "[18]": {"molecular_target": "EWSR1, Q01844", "procedure": "as §1"}, "[19]": {"molecular_target": "FAM136A, Q96C01", "procedure": "as §1"}, "[20]": {"molecular_target": "FAM168A, Q92567", "procedure": "as §1"}, "[21]": {"molecular_target": "FAM32A, Q9Y421", "procedure": "as §1"}, "[22]": {"molecular_target": "FAM50A, Q14320", "procedure": "as §1"}, "[23]": {"molecular_target": "FAM91A1, Q658Y4", "procedure": "as §1"}, "[24]": {"molecular_target": "FAM98A, Q8NCA5", "procedure": "as §1"}, "[25]": {"molecular_target": "FHL1, Q13642", "procedure": "as §1"}, "[26]": {"molecular_target": "FKBP2, P26885", "procedure": "as §1"}, "[27]": {"molecular_target": "FUBP1, Q96AE4", "procedure": "as §1"}, "[28]": {"molecular_target": "FUBP3, Q96I24", "procedure": "as §1"}, "[29]": {"molecular_target": "FUS, P35637", "procedure": "as §1"}, "[30]": {"molecular_target": "G3BP2, Q9UN86", "procedure": "as §1"}, "[31]": {"molecular_target": "GABARAPL2, P60520", "procedure": "as §1"}, "[32]": {"molecular_target": "GSK3B, P49841", "procedure": "as §1"}, "[33]": {"molecular_target": "GTPBP1, O00178", "procedure": "as §1"}, "[34]": {"molecular_target": "HNRNPA0, Q13151", "procedure": "as §1"}, "[35]": {"molecular_target": "HNRNPA1, P09651", "procedure": "as §1"}, "[36]": {"molecular_target": "HNRNPA2B1, P22626", "procedure": "as §1"}, "[37]": {"molecular_target": "HNRNPA3, P51991", "procedure": "as §1"}, "[38]": {"molecular_target": "HOMER1, Q86YM7", "procedure": "as §1"}, "[39]": {"molecular_target": "IBA57, Q5T440", "procedure": "as §1"}, "[40]": {"molecular_target": "ISCU, Q9H1K1", "procedure": "as §1"}, "[41]": {"molecular_target": "KHDRBS1, Q07666", "procedure": "as §1"}, "[42]": {"molecular_target": "KHSRP, Q92945", "procedure": "as §1"}}, "note": "This is one part of the list. Only hits are listed; about a third recur on repeated control peptides.", "data": [{"binder": "MMFWTEF", "note": "[SH3D19]", "values": [{"measurement": "PRISMA enrichment of interactor (log2)", "setting": "[1]", "value": 7.9}, {"measurement": "PRISMA enrichment of interactor (log2)", "setting": "[2]", "value": 4.52}, {"measurement": "PRISMA enrichment of interactor (log2)", "setting": "[3]", "value": 5.54}, {"measurement": "PRISMA enrichment of interactor (log2)", "setting": "[4]", "value": 5.06}, {"measurement": "PRISMA enrichment of interactor (log2)", "setting": "[5]", "value": 4.55}, {"measurement": "PRISMA enrichment of interactor (log2)", "setting": "[6]", "value": 5.01}, {"measurement": "PRISMA enrichment of interactor (log2)", "setting": "[7]", "value": 5.56}, {"measurement": "PRISMA enrichment of interactor (log2)", "setting": "[8]", "value": 7.57}, {"measurement": "PRISMA enrichment of interactor (log2)", "setting": "[9]", "value": 5.34}, {"measurement": "PRISMA enrichment of interactor (log2)", "setting": "[10]", "value": 5.41}, {"measurement": "PRISMA enrichment of interactor (log2)", "setting": "[11]", "value": 3.84}, {"measurement": "PRISMA enrichment of interactor (log2)", "setting": "[12]", "value": 4.81}, {"measurement": "PRISMA enrichment of interactor (log2)", "setting": "[13]", "value": 5.19}, {"measurement": "PRISMA enrichment of interactor (log2)", "setting": "[14]", "value": 4.97}, {"measurement": "PRISMA enrichment of interactor (log2)", "setting": "[15]", "value": 4.73}, {"measurement": "PRISMA enrichment of interactor (log2)", "setting": "[16]", "value": 6.11}, {"measurement": "PRISMA enrichment of interactor (log2)", "setting": "[17]", "value": 5.96}, {"measurement": "PRISMA enrichment of interactor (log2)", "setting": "[18]", "value": 5.29}, {"measurement": "PRISMA enrichment of interactor (log2)", "setting": "[19]", "value": 4.32}, {"measurement": "PRISMA enrichment of interactor (log2)", "setting": "[20]", "value": 4.5}, {"measurement": "PRISMA enrichment of interactor (log2)", "setting": "[21]", "value": 4.27}, {"measurement": "PRISMA enrichment of interactor (log2)", "setting": "[22]", "value": 5.87}, {"measurement": "PRISMA enrichment of interactor (log2)", "setting": "[23]", "value": 4.81}, {"measurement": "PRISMA enrichment of interactor (log2)", "setting": "[24]", "value": 4.84}, {"measurement": "PRISMA enrichment of interactor (log2)", "setting": "[25]", "value": 4.25}, {"measurement": "PRISMA enrichment of interactor (log2)", "setting": "[26]", "value": 6.74}, {"measurement": "PRISMA enrichment of interactor (log2)", "setting": "[27]", "value": 6.93}, {"measurement": "PRISMA enrichment of interactor (log2)", "setting": "[28]", "value": 6.44}, {"measurement": "PRISMA enrichment of interactor (log2)", "setting": "[29]", "value": 5.45}, {"measurement": "PRISMA enrichment of interactor (log2)", "setting": "[30]", "value": 5.2}, {"measurement": "PRISMA enrichment of interactor (log2)", "setting": "[31]", "value": 5.73}, {"measurement": "PRISMA enrichment of interactor (log2)", "setting": "[32]", "value": 5.08}, {"measurement": "PRISMA enrichment of interactor (log2)", "setting": "[33]", "value": 6.11}, {"measurement": "PRISMA enrichment of interactor (log2)", "setting": "[34]", "value": 5.74}, {"measurement": "PRISMA enrichment of interactor (log2)", "setting": "[35]", "value": 5.28}, {"measurement": "PRISMA enrichment of interactor (log2)", "setting": "[36]", "value": 4.1}, {"measurement": "PRISMA enrichment of interactor (log2)", "setting": "[37]", "value": 4.94}, {"measurement": "PRISMA enrichment of interactor (log2)", "setting": "[38]", "value": 4.4}, {"measurement": "PRISMA enrichment of interactor (log2)", "setting": "[39]", "value": 6.38}, {"measurement": "PRISMA enrichment of interactor (log2)", "setting": "[40]", "value": 6.08}, {"measurement": "PRISMA enrichment of interactor (log2)", "setting": "[41]", "value": 5.67}, {"measurement": "PRISMA enrichment of interactor (log2)", "setting": "[42]", "value": 4.77}]}]}
